Patent EP4424325A1
Results are given in words; binding and its absence hold for the method and conditions named. Some entries that bind do so weakly or less than the wild type.

B1: VHH5-GS3-hIDS (protein)
chain: QVQLVESGGGLVQPGGSLRLSCAASGSIFDIYVMRWYRQAPGKGLEWVASIYDGGRNDYDNVVKGRFTISRDNSKNTLYLQMNSLRAEDTAVYFCNVLTYAGRPYWGQGTQVTVSSGGGGSGGGGSGGGGSSETQANSTTDALNVLLIIVDDLRPSLGCYGDKLVRSPNIDQLASHSLLFQNAFAQQAVCAPSRVSFLTGRRPDTTRLYDFNSYWRVHAGNFSTIPQYFKENGYVTMSVGKVFHPGISSNHTDDSPYSWSFPPYHPSSEKYENTKTCRGPDGELHANLLCPVDVLDVPEGTLPDKQSTEQAIQLLEKMKTSASPFFLAVGYHKPHIPFRYPKEFQKLYPLENITLAPDPEVPDGLPPVAYNPWMDIRQREDVQALNISVPYGPIPVDFQRKIRQSYFASVSYLDTQVGRLLSALDDLQLANSTIIAFTSDHGWALGEHGEWAKYSNFDVATHVPLIFYVPGRTASLPEAGEKLFPYLDPFDSASQLMEPGRQSMDLVELVSLFPTLAGLAGLQVPPRCPVPSFHVELCREGKNLLKHFRFRDLEEDPYLPGNPRELIAYSQYPRPSDIPQWNSDKPSLKDIKIMGYSIRTIDYRYTVWVGFNPDEFLANFSDIHAGELYFVDSDPLQDHNMYNDSQGGDLFQLLMP
B2: VHH6-GS3-hIDS (protein)
chain: QVQLVESGGGLVQPGGSLRLSCAASGSIFDIYVMRWYRQAPGKGLEWVASIYAGGRNDYDNVVKGRFTISRDNSKNTLYLQMNSLRAEDTAVYFCNVLTYAGRPYWGQGTQVTVSSGGGGSGGGGSGGGGSSETQANSTTDALNVLLIIVDDLRPSLGCYGDKLVRSPNIDQLASHSLLFQNAFAQQAVCAPSRVSFLTGRRPDTTRLYDFNSYWRVHAGNFSTIPQYFKENGYVTMSVGKVFHPGISSNHTDDSPYSWSFPPYHPSSEKYENTKTCRGPDGELHANLLCPVDVLDVPEGTLPDKQSTEQAIQLLEKMKTSASPFFLAVGYHKPHIPFRYPKEFQKLYPLENITLAPDPEVPDGLPPVAYNPWMDIRQREDVQALNISVPYGPIPVDFQRKIRQSYFASVSYLDTQVGRLLSALDDLQLANSTIIAFTSDHGWALGEHGEWAKYSNFDVATHVPLIFYVPGRTASLPEAGEKLFPYLDPFDSASQLMEPGRQSMDLVELVSLFPTLAGLAGLQVPPRCPVPSFHVELCREGKNLLKHFRFRDLEEDPYLPGNPRELIAYSQYPRPSDIPQWNSDKPSLKDIKIMGYSIRTIDYRYTVWVGFNPDEFLANFSDIHAGELYFVDSDPLQDHNMYNDSQGGDLFQLLMP
B3: VHH5-Tandem-GS3-hIDS (protein)
chain: QVQLVESGGGLVQPGGSLRLSCAASGSIFDIYVMRWYRQAPGKGLEWVASIYDGGRNDYDNVVKGRFTISRDNSKNTLYLQMNSLRAEDTAVYFCNVLTYAGRPYWGQGTQVTVSSGSQVQLVESGGGLVQPGGSLRLSCAASGSIFDIYVMRWYRQAPGKGLEWVASIYDGGRNDYDNVVKGRFTISRDNSKNTLYLQMNSLRAEDTAVYFCNVLTYAGRPYWGQGTQVTVSSGGGGSGGGGSGGGGSSETQANSTTDALNVLLIIVDDLRPSLGCYGDKLVRSPNIDQLASHSLLFQNAFAQQAVCAPSRVSFLTGRRPDTTRLYDFNSYWRVHAGNFSTIPQYFKENGYVTMSVGKVFHPGISSNHTDDSPYSWSFPPYHPSSEKYENTKTCRGPDGELHANLLCPVDVLDVPEGTLPDKQSTEQAIQLLEKMKTSASPFFLAVGYHKPHIPFRYPKEFQKLYPLENITLAPDPEVPDGLPPVAYNPWMDIRQREDVQALNISVPYGPIPVDFQRKIRQSYFASVSYLDTQVGRLLSALDDLQLANSTIIAFTSDHGWALGEHGEWAKYSNFDVATHVPLIFYVPGRTASLPEAGEKLFPYLDPFDSASQLMEPGRQSMDLVELVSLFPTLAGLAGLQVPPRCPVPSFHVELCREGKNLLKHFRFRDLEEDPYLPGNPRELIAYSQYPRPSDIPQWNSDKPSLKDIKIMGYSIRTIDYRYTVWVGFNPDEFLANFSDIHAGELYFVDSDPLQDHNMYNDSQGGDLFQLLMP

The binders below were run against recombinant hTfR containing the extracellular region of hTfR (coated on the ELISA plate in Example 16) (human) (UniProt P02786) (assay: ELISA, recombinant hTfR coated on plate).
For B1, the binding was “binds”.
With B2 the binding was “binds”.
For B3, the binding was “binds”.
